Results are given in words; binding and its absence hold for the method and conditions named. Binding seen in cells or lysates may run through a third protein. Some binding calls cover weakened binding; strength is not graded here. Where a sequence is shown, tags or fusion partners need not be part of it.
Experiments:
[1] = target: Flag-(dead)VASH2-sfGFP-His (mouse vasohibin-2 C158A, catalytic dead) (mouse) (UniProt Q8C5G2); experiment: co-expression in HEK293T cells, cobalt resin co-purification
[2] = target: Flag-VASH1-sfGFP-His (mouse vasohibin-1) (mouse) (UniProt Q8C1W1); experiment: as above
[3] = target: Flag-VASH2-sfGFP-His (mouse vasohibin-2) (mouse) (UniProt Q8C5G2); experiment: as above
[4] = target: Flag-(dead)VASH1-sfGFP-His (mouse vasohibin-1 C179A, catalytic dead) (mouse) (UniProt Q8C1W1); experiment: as above
[5] = target: Flag-(dead)VASH2-sfGFP-His (mouse vasohibin-2 C158A, catalytic dead) (mouse) (UniProt Q8C5G2); experiment: cobalt resin co-purification, anti-His and anti-Flag Western blot
[6] = target: Flag-VASH1-sfGFP-His (mouse vasohibin-1) (mouse) (UniProt Q8C1W1); experiment: as above
[7] = target: Flag-VASH2-sfGFP-His (mouse vasohibin-2) (mouse) (UniProt Q8C5G2); experiment: as above
[8] = target: Flag-(dead)VASH1-sfGFP-His (mouse vasohibin-1 C179A, catalytic dead) (mouse) (UniProt Q8C1W1); experiment: as above

Amino acid sequences for entries named in this document (tags omitted). A change or cut given only in a name is not applied to a line headed by its entry.
UniProt Q8C5G2: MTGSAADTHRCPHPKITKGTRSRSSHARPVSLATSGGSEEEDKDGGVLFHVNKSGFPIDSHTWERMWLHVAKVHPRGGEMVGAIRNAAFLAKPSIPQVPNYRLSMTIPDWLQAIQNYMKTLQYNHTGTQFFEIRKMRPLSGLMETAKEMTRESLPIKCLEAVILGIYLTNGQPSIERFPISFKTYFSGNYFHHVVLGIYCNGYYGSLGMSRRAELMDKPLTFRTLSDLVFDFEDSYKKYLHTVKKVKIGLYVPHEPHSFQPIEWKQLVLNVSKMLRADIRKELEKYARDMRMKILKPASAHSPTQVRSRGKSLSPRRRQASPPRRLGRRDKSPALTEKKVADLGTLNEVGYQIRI
UniProt Q8C1W1: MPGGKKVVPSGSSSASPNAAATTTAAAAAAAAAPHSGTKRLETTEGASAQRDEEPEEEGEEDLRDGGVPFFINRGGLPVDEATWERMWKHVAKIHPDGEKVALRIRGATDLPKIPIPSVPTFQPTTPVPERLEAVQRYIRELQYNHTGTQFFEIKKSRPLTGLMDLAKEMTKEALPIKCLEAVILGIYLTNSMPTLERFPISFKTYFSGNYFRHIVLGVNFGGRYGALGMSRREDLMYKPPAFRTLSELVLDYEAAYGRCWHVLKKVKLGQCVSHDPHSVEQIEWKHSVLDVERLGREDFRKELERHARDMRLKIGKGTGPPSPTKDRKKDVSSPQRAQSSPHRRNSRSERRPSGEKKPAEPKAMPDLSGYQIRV

binding [1]: binds | binding [2]: binds | binding [3]: binds | binding [4]: binds | binding [5]: binds | binding [6]: binds | binding [7]: binds | binding [8]: binds
B1: SVBP-Myc-Flag (mouse Small Vasohibin-Binding Protein with C-terminal Myc and Flag tags) (protein, UniProt Q99LQ4 1-66, looked up, not shown: small tags and cut ends)
chain: MDPPARKEKSKVKEPAFRVEKAKQKSAQQELKQRQRAEIYALNRVMTELEQQQFDEFCKQMQPPGE

From patent publication US20200407726A1
